Data reported in the supplement of paper PMC6411743.
± gives the standard deviation of the averaged measurements. The entries are a selection whose mix differs from that of the whole data set.

Amino acid sequences for entries named in this document (tags omitted). A change or cut given only in a name is not applied to a line headed by its entry.
UniProt Q15019: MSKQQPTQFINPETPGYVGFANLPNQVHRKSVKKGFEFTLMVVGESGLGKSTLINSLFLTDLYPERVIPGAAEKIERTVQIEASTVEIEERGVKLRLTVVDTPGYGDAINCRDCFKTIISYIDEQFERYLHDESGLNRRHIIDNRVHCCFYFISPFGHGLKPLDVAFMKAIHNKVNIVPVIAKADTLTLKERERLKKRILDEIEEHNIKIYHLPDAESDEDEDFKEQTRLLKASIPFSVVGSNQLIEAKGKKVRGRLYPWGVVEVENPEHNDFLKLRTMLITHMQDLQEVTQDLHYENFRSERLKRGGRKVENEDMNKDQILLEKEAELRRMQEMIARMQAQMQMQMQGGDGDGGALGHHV
UniProt Q9H3R5: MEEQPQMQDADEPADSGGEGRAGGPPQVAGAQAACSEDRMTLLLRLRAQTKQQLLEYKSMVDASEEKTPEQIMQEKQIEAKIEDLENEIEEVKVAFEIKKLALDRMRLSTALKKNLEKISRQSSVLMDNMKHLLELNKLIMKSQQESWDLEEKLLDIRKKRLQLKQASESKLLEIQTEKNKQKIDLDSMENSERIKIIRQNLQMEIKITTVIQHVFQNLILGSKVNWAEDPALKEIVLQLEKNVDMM
UniProt Q9NVN3: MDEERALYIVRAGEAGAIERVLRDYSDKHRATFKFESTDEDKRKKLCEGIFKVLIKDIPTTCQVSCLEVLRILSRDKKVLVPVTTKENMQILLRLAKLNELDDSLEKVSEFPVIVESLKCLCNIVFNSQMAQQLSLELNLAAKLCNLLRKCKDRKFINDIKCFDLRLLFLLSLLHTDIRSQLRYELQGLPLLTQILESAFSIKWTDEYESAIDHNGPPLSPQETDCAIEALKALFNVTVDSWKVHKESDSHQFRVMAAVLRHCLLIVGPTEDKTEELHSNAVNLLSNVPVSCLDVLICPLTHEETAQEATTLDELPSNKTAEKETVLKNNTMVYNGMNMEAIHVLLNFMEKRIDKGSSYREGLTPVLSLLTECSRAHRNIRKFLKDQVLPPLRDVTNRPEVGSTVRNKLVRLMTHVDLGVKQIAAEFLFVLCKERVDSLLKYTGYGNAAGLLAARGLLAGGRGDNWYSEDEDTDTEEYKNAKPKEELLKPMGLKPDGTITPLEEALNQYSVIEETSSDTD
UniProt Q9BZL6: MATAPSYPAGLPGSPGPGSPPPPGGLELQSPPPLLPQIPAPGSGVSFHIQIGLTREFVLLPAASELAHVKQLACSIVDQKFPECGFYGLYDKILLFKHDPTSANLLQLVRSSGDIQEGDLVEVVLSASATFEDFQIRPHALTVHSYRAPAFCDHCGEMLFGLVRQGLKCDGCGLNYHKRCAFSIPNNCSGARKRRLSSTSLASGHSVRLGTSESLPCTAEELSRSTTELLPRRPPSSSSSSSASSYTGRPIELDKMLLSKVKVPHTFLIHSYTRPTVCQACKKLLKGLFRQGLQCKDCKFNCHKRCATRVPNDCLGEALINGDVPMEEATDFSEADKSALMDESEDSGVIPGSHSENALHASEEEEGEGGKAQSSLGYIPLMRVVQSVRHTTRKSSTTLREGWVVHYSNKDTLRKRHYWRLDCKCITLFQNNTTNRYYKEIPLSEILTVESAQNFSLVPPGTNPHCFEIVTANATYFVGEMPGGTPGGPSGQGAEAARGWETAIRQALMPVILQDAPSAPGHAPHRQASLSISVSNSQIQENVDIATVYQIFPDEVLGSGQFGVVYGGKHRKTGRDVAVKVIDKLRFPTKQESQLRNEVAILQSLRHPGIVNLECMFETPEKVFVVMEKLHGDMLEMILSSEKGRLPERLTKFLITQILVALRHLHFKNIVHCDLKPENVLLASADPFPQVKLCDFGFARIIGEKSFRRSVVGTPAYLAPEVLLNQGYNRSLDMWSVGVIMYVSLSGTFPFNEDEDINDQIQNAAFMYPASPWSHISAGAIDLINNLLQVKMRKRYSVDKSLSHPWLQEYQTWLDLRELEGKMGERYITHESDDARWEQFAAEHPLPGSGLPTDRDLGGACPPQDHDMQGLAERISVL
UniProt Q9Y4C2: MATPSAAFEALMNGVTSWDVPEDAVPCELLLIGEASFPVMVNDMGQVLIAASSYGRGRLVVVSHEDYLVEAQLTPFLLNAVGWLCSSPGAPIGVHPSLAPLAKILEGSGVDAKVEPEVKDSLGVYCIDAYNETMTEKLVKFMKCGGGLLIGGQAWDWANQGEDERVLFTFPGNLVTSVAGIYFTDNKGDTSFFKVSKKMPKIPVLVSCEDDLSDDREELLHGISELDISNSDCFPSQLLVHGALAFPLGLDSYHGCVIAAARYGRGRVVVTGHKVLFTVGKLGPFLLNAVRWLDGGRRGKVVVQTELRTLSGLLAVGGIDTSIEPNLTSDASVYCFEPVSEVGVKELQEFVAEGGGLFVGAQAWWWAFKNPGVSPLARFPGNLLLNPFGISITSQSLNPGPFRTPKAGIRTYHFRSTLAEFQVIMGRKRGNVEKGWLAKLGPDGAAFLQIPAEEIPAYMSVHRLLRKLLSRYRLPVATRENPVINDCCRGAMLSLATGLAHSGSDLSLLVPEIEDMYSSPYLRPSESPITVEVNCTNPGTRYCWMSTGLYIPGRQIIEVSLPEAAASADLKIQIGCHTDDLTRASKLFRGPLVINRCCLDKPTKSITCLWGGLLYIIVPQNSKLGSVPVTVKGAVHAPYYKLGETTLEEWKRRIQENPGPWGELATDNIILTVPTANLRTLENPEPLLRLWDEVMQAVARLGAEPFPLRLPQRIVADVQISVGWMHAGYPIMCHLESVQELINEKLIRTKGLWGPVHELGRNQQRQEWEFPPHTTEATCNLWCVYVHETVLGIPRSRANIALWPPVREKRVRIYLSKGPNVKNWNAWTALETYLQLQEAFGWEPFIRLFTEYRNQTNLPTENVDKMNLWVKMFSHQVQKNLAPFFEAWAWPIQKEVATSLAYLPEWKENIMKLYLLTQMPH
UniProt P43487, whole entry: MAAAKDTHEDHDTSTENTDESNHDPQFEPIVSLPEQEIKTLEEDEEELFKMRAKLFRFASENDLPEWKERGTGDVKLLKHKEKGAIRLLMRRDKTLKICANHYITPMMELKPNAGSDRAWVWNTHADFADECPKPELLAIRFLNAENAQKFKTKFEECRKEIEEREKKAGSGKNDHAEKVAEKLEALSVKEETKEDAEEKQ
UniProt Q9H6V9: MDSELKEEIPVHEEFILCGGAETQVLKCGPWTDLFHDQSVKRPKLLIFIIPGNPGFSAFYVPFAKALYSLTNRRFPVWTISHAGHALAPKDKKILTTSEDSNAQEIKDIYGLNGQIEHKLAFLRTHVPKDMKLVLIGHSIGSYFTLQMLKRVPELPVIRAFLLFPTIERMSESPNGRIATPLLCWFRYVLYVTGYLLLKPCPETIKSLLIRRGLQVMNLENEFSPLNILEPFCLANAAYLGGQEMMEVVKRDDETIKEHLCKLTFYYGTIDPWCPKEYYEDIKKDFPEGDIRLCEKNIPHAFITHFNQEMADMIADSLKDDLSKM
UniProt Q6UB35, whole entry: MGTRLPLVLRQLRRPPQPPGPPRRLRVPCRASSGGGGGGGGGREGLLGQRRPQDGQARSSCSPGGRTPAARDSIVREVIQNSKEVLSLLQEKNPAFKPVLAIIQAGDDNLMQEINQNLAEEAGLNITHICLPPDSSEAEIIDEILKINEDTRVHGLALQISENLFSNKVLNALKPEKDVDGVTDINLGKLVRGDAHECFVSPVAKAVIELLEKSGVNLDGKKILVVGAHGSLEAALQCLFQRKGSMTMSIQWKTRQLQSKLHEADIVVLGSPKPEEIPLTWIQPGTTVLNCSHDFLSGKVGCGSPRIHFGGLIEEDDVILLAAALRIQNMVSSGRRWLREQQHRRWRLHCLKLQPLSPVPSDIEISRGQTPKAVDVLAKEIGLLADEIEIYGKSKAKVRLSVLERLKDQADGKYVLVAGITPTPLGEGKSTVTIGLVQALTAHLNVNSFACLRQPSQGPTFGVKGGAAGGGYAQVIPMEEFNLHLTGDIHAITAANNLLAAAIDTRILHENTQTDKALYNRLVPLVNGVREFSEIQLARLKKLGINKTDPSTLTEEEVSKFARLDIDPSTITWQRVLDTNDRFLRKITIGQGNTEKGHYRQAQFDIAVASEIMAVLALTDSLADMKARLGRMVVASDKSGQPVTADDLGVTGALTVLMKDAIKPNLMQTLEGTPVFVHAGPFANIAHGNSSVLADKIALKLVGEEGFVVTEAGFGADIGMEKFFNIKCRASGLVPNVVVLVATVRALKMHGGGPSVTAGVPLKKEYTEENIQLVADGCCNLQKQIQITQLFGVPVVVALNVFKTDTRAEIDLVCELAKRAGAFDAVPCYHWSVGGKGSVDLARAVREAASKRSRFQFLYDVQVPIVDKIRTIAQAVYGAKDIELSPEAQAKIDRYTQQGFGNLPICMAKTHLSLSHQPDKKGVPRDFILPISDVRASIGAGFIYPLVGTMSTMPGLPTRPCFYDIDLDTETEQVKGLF
UniProt Q8NCN5: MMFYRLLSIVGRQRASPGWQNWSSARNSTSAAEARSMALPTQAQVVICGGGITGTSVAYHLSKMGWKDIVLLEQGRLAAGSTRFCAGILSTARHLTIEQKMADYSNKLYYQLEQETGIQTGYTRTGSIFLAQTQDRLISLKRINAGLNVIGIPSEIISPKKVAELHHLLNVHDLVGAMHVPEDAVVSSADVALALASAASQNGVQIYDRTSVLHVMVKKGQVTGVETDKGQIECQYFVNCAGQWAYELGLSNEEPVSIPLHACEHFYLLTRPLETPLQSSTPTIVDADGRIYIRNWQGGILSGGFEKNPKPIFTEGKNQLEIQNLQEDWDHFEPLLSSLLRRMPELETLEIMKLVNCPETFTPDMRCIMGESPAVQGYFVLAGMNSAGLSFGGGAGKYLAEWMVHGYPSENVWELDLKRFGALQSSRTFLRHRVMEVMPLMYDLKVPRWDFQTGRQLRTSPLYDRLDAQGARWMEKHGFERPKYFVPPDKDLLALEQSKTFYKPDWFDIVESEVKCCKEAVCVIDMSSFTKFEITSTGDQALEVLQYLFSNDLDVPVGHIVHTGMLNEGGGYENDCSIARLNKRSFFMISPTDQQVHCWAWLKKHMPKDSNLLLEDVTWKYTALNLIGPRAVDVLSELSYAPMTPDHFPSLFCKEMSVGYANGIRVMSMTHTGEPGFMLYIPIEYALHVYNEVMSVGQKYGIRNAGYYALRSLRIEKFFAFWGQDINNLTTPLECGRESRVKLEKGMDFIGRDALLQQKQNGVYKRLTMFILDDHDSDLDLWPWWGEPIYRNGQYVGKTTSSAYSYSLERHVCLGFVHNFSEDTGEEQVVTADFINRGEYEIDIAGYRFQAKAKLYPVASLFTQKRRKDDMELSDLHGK
UniProt Q53GS9: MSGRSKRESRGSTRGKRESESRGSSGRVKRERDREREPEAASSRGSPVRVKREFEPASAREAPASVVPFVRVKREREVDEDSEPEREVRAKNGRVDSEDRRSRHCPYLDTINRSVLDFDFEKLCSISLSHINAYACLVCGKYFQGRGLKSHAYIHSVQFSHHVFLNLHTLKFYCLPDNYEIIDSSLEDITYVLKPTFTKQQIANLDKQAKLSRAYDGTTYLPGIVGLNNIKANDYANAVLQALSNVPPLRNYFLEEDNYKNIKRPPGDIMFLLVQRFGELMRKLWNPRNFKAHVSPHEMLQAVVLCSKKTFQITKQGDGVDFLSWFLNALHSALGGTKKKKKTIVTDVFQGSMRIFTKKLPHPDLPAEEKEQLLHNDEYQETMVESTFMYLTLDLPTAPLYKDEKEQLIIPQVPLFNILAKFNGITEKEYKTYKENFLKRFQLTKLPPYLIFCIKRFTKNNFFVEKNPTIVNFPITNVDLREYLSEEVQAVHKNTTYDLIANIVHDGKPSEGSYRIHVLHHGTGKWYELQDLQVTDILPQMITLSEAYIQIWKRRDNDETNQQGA
UniProt Q9Y6X4: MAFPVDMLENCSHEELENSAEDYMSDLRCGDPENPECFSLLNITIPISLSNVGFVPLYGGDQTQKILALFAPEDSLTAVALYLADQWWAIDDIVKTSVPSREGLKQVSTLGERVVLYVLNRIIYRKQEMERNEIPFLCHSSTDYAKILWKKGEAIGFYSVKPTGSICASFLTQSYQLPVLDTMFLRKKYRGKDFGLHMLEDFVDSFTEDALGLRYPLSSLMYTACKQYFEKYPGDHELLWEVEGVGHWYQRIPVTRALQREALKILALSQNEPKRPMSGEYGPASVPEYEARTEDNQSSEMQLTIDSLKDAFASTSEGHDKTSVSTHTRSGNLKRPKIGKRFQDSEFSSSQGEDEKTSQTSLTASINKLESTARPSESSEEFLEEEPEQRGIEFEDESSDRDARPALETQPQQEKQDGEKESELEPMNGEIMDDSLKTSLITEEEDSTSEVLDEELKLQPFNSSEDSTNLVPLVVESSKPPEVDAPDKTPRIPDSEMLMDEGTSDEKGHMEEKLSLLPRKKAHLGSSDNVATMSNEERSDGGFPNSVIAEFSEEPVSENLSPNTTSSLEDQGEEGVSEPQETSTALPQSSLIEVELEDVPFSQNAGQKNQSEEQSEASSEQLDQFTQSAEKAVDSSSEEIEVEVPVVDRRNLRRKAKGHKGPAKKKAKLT

Compound: Nc1ncnc2c1ncn2[C@@H]1O[C@H](COP(=O)(O)OP(=O)(O)NP(=O)(O)O)[C@@H](O)[C@H]1O [adenylyl imidodiphosphate]
Test: NP40-soluble protein abundance relative to vehicle (solubility fold change) (ratio); higher = more soluble protein in presence of AMP-PNP
Procedure, shortened: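 Jurkat crude lysate prepared with a Dounce homogeniser was treated at eight concentrations spanning 0.1 to 10 mM, 10 min at room temperature then 3 min at 37 °C. Solubilisation with 0.8% NP40 and benzonase and ultracentrifugation preceded TMT labelling of the supernatant for LC-MS/MS. Fold change against the detergent-processed vehicle was determined per replicate from vsn-normalised intensities, across three independent experiments.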

| Target | NP40-soluble protein abundance (concentration: 1mM) | NP40-soluble protein abundance (concentration: 2mM) | NP40-soluble protein abundance (concentration: 4mM) | NP40-soluble protein abundance (concentration: 6mM) | NP40-soluble protein abundance (concentration: 8mM) | NP40-soluble protein abundance (concentration: 10mM) |
| --- | --- | --- | --- | --- | --- | --- |
| B5MCX3 and related entries (UniProt Q15019) | 1.027 ± 0.0023 | 0.997 ± 0.032 | 1.003 ± 0.0091 | 0.984 ± 0.026 | 0.98 ± 0.017 | 0.952 ± 0.037 |
| B7Z779 and related entries (UniProt Q96A25) | 1.008 ± 0.0063 | 0.994 ± 0.038 | 0.986 ± 0.036 | 1.02 ± 0.022 | 1.01 ± 0.063 | 1.02 ± 0.045 |
| C9JLU1 and related entries (UniProt P52434) | 0.95 ± 0.026 | 0.887 ± 0.065 | 0.937 ± 0.031 | 0.956 ± 0.062 | 0.999 ± 0.034 | 0.948 ± 0.037 |
| C9JUL4 and related entries (UniProt Q9UDY4) | 0.973 ± 0.038 | 0.94 ± 0.041 | 0.966 ± 0.016 | 0.988 ± 0.04 | 0.974 ± 0.014 | 0.96914 ± 0.00066 |
| C9JF71 and related entries (UniProt Q8TBF5) | 1.01 ± 0.013 | 0.992 ± 0.026 | 0.989 ± 0.027 | 1.01 ± 0.026 | 1 ± 0.015 | 0.9939 ± 0.0047 |
| D6RA71 and related entries (UniProt P78317) | 0.978 ± 0.021 | 1 ± 0.031 | 1.03 ± 0.044 | 0.997 ± 0.035 | 0.979 ± 0.048 | 0.996 ± 0.04 |
| B5MBX0 and related entries (UniProt Q96FF9) | 1 ± 0.021 | 1.04 ± 0.058 | 1 ± 0.021 | 1.01 ± 0.016 | 1.02 ± 0.0052 | 1.02 ± 0.024 |
| D3DTX6 and related entries (UniProt Q96SB3) | 1.04 ± 0.04 | 1.13 ± 0.16 | 1.03 ± 0.024 | 1.05 ± 0.083 | 1.04 ± 0.12 | 1.1 ± 0.1 |
| B3KVZ3 and related entries (UniProt Q9H3R5) | 0.995 ± 0.016 | 1.04 ± 0.041 | 0.9738 ± 0.0075 | 1.03 ± 0.11 | 1.01 ± 0.045 | 1.04 ± 0.14 |
| B7WPL0 and related entries (UniProt Q9NVN3) | 0.982 ± 0.013 | 0.971 ± 0.023 | 0.997 ± 0.017 | 0.962 ± 0.032 | 0.982 ± 0.016 | 0.967 ± 0.01 |
| B4DTS2 and related entries (UniProt Q9BZL6) | 1.03 ± 0.046 | 1.013 ± 0.0081 | 1.02 ± 0.017 | 1.018 ± 0.0075 | 1.03 ± 0.012 | 0.991 ± 0.01 |
| C9IYN3 and related entries (UniProt Q8WVV9+D6W592+C9IYN3) | 1.01 ± 0.029 | 0.957 ± 0.064 | 1 ± 0.018 | 0.988 ± 0.029 | 1 ± 0.038 | 0.986 ± 0.011 |
| C9J9F4 and related entries (UniProt Q9Y4C2) | 0.987 ± 0.022 | 0.976 ± 0.088 | 0.949 ± 0.043 | 0.951 ± 0.067 | 0.962 ± 0.063 | 0.944 ± 0.097 |
| B4DY09 and related entries (UniProt Q12905) | 1.06 ± 0.025 | 1.04 ± 0.041 | 1.07 ± 0.052 | 1.16 ± 0.032 | 1.18 ± 0.048 | 1.19 ± 0.058 |
| A6NCE7 and related entries (UniProt Q9GZQ8+H3BTL1+A6NCE7) | 1.01 ± 0.038 | 1.018 ± 0.0085 | 1.05 ± 0.038 | 0.982 ± 0.028 | 1.02 ± 0.028 | 1.02 ± 0.049 |
| C9JJ34 and related entries (UniProt P43487) | 0.989 ± 0.066 | 1.03 ± 0.081 | 0.924 ± 0.067 | 0.903 ± 0.02 | 0.911 ± 0.025 | 0.871 ± 0.05 |
| B4E1E4 and related entries (UniProt O60573) | 1 ± 0.056 | 1 ± 0.091 | 1.02 ± 0.088 | 1.03 ± 0.024 | 1.05 ± 0.029 | 1.04 ± 0.062 |
| UniProt A6QL63 and related entries | 0.988 ± 0.04 | 0.97 ± 0.079 | 0.964 ± 0.049 | 0.953 ± 0.065 | 0.968 ± 0.048 | 0.946 ± 0.059 |
| B4DRG3 and related entries (UniProt Q9H6V9+B5MCE2+B5MDU6+B4DRG3) | 0.9913 ± 0.0098 | 0.948 ± 0.046 | 0.999 ± 0.013 | 1.026 ± 0.0069 | 1.05 ± 0.05 | 0.9907 ± 0.006 |
| B9A057 and related entries (UniProt Q86WW8) | 1.05 ± 0.055 | 1.11 ± 0.09 | 1.11 ± 0.062 | 1.08 ± 0.028 | 1.13 ± 0.038 | 1.13 ± 0.061 |
| B8ZZQ6 and related entries (UniProt P06454) | 1.05 ± 0.12 | 1.04 ± 0.052 | 0.991 ± 0.088 | 0.999 ± 0.13 | 0.919 ± 0.064 | 1.01 ± 0.14 |
| B7ZM99 and related entries (UniProt Q6UB35) | 0.983 ± 0.024 | 0.92 ± 0.098 | 0.967 ± 0.015 | 0.973 ± 0.024 | 0.969 ± 0.018 | 0.946 ± 0.016 |
| B7Z863 and related entries (UniProt Q14BN4) | 1 ± 0.033 | 1.05 ± 0.037 | 1.01 ± 0.034 | 0.982 ± 0.053 | 0.932 ± 0.024 | 0.983 ± 0.016 |
| A8MT40 and related entries (UniProt Q8NCN5) | 0.956 ± 0.026 | 0.861 ± 0.11 | 0.95 ± 0.038 | 0.885 ± 0.033 | 0.924 ± 0.039 | 0.878 ± 0.021 |
| D6RCD0 and related entries (UniProt Q8NBQ5) | 0.995 ± 0.031 | 0.9738 ± 0.0077 | 1.01 ± 0.047 | 1.06 ± 0.079 | 1.04 ± 0.056 | 1.04 ± 0.064 |
| C9JNV2 and related entries (UniProt P41223) | 1.04 ± 0.036 | 1.06 ± 0.046 | 1.08 ± 0.016 | 1.094 ± 0.0079 | 1.136 ± 0.0067 | 1.12 ± 0.045 |
| A9IYQ1 and related entries (UniProt Q9NTI5) | 1.004 ± 0.0096 | 1.009 ± 0.0055 | 1.02 ± 0.011 | 1.05 ± 0.032 | 1.05 ± 0.028 | 1.05 ± 0.018 |
| D3YTK1 and related entries (UniProt Q9C0K0) | 1.04 ± 0.087 | 1.07 ± 0.027 | 1.05 ± 0.084 | 1 ± 0.08 | 0.969 ± 0.049 | 1.01 ± 0.069 |
| B9A018 and related entries (UniProt Q53GS9) | 0.976 ± 0.024 | 0.918 ± 0.084 | 0.976 ± 0.039 | 1.06 ± 0.021 | 1.108 ± 0.0024 | 1.07 ± 0.045 |
| D6RB01 and related entries (UniProt Q9Y6X4) | 1.07 ± 0.047 | 1.09 ± 0.023 | 1.05 ± 0.02 | 1.02 ± 0.023 | 0.994 ± 0.011 | 1.01 ± 0.038 |

An excerpt of these results, with tabs.
Target	NP40-soluble protein abundance (concentration: 1mM)	NP40-soluble protein abundance (concentration: 2mM)	NP40-soluble protein abundance (concentration: 4mM)	NP40-soluble protein abundance (concentration: 6mM)	NP40-soluble protein abundance (concentration: 8mM)	NP40-soluble protein abundance (concentration: 10mM)
B5MBX0 and related entries (UniProt Q96FF9)	1 ± 0.021	1.04 ± 0.058	1 ± 0.021	1.01 ± 0.016	1.02 ± 0.0052	1.02 ± 0.024
A8MT40 and related entries (UniProt Q8NCN5)	0.956 ± 0.026	0.861 ± 0.11	0.95 ± 0.038	0.885 ± 0.033	0.924 ± 0.039	0.878 ± 0.021
